Measurements reported in publication doi:10.1101/2021.04.26.441477.
These are yes or no findings as the source states them, for the method shown. Binding seen in cells or lysates may run through a third protein. Some results given as binding are weak or reduced against the parent protein; the word gives no strength.

Amino acid sequences for entries named in this document (tags omitted).
UniProt P09405: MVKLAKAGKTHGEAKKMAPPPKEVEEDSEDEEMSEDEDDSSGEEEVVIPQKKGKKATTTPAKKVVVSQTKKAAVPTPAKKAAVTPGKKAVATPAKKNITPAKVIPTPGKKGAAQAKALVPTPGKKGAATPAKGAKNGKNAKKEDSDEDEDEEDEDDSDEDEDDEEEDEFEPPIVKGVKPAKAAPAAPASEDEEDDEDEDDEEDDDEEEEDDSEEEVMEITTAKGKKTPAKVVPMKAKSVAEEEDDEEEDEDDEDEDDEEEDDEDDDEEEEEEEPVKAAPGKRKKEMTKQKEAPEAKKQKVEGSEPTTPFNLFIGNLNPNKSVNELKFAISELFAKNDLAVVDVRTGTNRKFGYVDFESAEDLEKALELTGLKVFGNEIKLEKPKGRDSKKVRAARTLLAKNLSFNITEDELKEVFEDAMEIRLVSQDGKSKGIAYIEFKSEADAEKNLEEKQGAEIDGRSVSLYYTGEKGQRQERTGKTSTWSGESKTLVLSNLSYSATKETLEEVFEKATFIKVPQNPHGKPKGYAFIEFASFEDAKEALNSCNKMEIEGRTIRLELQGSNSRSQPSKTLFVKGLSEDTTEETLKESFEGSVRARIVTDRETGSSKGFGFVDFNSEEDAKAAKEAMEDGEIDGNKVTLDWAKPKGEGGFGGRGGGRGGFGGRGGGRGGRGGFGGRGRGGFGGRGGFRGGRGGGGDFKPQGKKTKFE

Target: Nucleolin (mouse), FLAG-tagged and HA-tagged copies co-expressed in transfected cells (mouse) (UniProt P09405)
Experiment: co-IP

Q: With “Nucleolin (mouse), FLAG-tagged and HA-tagged copies co-expressed in transfected cells (from UniProt P09405 1-707)” as the substance, how does the binding read?
A: Its binding is “binds”.
